Reference: patent US20070172514A1, “Materials and methods for improving livestock productivity” (priority 2006, published 2007)

Tested on: swine
Test: Sensory evaluation of pork from swine fed diets with Cysteamine HCl
Type: in vivo
Settings: in words; 150 g per ton of feed

For Cl.NCCS [Cysteamine HCl, cysteamine hydrochloride], the “Sensory review of meat flavor and attributes vs swine without cysteamine hydrochloride” value was “no significant difference”.
